The target of assay [1] is T1, ERFAD-HA (UniProt Q8IWF2).
T1 sequence: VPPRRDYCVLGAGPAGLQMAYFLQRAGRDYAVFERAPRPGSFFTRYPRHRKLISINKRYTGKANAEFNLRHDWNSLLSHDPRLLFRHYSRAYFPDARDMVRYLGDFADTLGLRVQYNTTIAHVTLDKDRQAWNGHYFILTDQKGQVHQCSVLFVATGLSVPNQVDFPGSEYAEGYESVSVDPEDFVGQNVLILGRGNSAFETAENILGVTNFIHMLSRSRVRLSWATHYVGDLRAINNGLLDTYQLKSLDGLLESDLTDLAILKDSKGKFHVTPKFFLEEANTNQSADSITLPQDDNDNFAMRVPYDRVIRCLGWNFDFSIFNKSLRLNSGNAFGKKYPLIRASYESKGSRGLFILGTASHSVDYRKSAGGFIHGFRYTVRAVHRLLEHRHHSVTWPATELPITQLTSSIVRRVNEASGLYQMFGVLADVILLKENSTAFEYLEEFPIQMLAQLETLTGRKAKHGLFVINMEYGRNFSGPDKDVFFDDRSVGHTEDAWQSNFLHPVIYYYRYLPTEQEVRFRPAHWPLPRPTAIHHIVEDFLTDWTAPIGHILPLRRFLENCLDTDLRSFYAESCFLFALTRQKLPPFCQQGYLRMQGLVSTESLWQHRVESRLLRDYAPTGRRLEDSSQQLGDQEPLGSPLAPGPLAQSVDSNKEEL
Put plainly: co-IP; IP by the tag (anti-HA from A11 lysates; anti-myc from HEK293 transiently expressing myc-ERp90), Western blotting with anti-ERp90 or anti-ERFAD. A general note: Immunoblotting shows a protein as a band on a membrane.

Assay [2] deals with T1, ERFAD-HA. Put plainly: co-IP; [35S]-labelled A11 cells, Triton X-100 lysates, IP with anti-HA, reducing SDS-PAGE and autoradiography; re-IP with anti-HA, anti-SEL1L or anti-ERp90; cells also pretreated under reducing conditions or with diamide.
Assay [3] concerns the target T2, ERFAD (endogenous) (human (endogenous in HEK293)) (UniProt Q8IWF2).
T2 sequence: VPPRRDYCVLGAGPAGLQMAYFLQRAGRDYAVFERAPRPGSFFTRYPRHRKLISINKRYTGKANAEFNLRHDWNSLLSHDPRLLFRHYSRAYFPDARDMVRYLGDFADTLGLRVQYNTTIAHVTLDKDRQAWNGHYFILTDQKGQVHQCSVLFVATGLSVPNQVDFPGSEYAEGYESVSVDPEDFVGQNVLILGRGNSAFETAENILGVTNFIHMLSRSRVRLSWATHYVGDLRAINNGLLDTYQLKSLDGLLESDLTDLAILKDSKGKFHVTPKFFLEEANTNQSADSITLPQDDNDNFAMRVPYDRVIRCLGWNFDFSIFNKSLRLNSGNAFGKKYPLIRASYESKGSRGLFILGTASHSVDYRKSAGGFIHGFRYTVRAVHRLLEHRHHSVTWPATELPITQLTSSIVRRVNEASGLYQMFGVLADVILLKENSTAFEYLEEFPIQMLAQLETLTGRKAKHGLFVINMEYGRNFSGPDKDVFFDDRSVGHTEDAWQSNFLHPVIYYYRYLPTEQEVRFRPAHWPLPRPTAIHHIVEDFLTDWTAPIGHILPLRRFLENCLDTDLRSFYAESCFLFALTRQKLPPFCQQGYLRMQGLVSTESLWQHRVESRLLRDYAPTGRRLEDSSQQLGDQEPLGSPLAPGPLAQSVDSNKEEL
Put plainly: co-IP; [35S] pulse-labelled HEK293 cells, IP with ERFAD antiserum (pre-immune serum as control), re-IP with anti-ERFAD or anti-ERp90, autoradiography.

In the next assay the target is T3, ERFAD-His-FLAG (UniProt Q8IWF2).
T3 sequence: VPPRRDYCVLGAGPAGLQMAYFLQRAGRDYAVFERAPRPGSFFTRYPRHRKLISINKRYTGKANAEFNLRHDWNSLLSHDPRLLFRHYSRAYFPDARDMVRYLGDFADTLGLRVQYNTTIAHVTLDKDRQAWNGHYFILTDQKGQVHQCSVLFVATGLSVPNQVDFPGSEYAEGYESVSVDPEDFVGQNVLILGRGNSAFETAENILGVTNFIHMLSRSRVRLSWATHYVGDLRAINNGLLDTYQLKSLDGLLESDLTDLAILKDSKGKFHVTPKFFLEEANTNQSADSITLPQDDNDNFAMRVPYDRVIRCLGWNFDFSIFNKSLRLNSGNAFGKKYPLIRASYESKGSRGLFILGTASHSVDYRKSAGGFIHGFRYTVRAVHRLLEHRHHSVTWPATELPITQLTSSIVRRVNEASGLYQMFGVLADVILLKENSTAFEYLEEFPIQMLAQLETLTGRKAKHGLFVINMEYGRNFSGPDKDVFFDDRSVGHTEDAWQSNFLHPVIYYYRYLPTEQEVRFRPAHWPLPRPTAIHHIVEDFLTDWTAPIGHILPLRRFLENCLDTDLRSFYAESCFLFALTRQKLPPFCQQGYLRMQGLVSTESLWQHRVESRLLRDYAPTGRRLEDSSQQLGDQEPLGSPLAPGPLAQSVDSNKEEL
Put plainly: co-IP; [35S]-labelled 3B2B-myc-ERp90 cells, native anti-FLAG IP, elution with FLAG peptide under native conditions, second native IP with anti-myc.

In a further assay the target is T4, myc-ERp90 (human) (UniProt Q9P2K2).
T4 sequence: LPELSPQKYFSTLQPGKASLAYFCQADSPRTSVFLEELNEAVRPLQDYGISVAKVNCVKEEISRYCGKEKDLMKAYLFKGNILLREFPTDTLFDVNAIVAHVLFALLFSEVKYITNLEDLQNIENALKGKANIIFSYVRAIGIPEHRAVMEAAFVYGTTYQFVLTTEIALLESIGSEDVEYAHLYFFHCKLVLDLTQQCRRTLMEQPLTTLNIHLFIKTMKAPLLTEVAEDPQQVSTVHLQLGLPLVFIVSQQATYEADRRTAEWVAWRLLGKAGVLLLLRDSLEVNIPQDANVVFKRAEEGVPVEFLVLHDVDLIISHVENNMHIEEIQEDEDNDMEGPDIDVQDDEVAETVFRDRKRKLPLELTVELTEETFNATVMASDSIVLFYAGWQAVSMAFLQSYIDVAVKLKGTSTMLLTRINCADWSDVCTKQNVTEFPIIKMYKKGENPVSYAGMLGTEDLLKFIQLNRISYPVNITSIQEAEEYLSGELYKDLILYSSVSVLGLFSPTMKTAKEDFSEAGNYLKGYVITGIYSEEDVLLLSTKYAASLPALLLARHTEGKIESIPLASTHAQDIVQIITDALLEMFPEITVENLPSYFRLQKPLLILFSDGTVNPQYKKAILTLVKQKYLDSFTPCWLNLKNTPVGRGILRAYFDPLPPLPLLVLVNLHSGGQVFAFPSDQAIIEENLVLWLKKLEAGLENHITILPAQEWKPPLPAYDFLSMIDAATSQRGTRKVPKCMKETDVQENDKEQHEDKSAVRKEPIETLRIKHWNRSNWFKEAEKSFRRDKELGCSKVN
Put plainly: co-IP; IP by the tag (anti-HA from A11 lysates; anti-myc from HEK293 transiently expressing myc-ERp90), Western blotting with anti-ERp90 or anti-ERFAD.

This is an account of results in publication PMC3040216.

Results are given in words; binding and its absence hold for the method and conditions named. Binding seen in cells or lysates may run through a third protein. Some entries that bind do so weakly or less than the wild type. For some assays here: Tags and fused reporters may be left off the sequences shown.

B1: ERp90 (endogenous) (protein, UniProt Q9P2K2 28-825)
chain: LPELSPQKYFSTLQPGKASLAYFCQADSPRTSVFLEELNEAVRPLQDYGISVAKVNCVKEEISRYCGKEKDLMKAYLFKGNILLREFPTDTLFDVNAIVAHVLFALLFSEVKYITNLEDLQNIENALKGKANIIFSYVRAIGIPEHRAVMEAAFVYGTTYQFVLTTEIALLESIGSEDVEYAHLYFFHCKLVLDLTQQCRRTLMEQPLTTLNIHLFIKTMKAPLLTEVAEDPQQVSTVHLQLGLPLVFIVSQQATYEADRRTAEWVAWRLLGKAGVLLLLRDSLEVNIPQDANVVFKRAEEGVPVEFLVLHDVDLIISHVENNMHIEEIQEDEDNDMEGPDIDVQDDEVAETVFRDRKRKLPLELTVELTEETFNATVMASDSIVLFYAGWQAVSMAFLQSYIDVAVKLKGTSTMLLTRINCADWSDVCTKQNVTEFPIIKMYKKGENPVSYAGMLGTEDLLKFIQLNRISYPVNITSIQEAEEYLSGELYKDLILYSSVSVLGLFSPTMKTAKEDFSEAGNYLKGYVITGIYSEEDVLLLSTKYAASLPALLLARHTEGKIESIPLASTHAQDIVQIITDALLEMFPEITVENLPSYFRLQKPLLILFSDGTVNPQYKKAILTLVKQKYLDSFTPCWLNLKNTPVGRGILRAYFDPLPPLPLLVLVNLHSGGQVFAFPSDQAIIEENLVLWLKKLEAGLENHITILPAQEWKPPLPAYDFLSMIDAATSQRGTRKVPKCMKETDVQENDKEQHEDKSAVRKEPIETLRIKHWNRSNWFKEAEKSFRRDKELGCSKVN
modifications: N-glycans (EndoH-sensitive)
For B1, the binding entry (with ERFAD-HA [1]; with ERFAD-HA [2]; in assay [3]) was “binds” in each case.

B2: myc-ERp90 (protein, UniProt Q9P2K2 28-825)
chain: LPELSPQKYFSTLQPGKASLAYFCQADSPRTSVFLEELNEAVRPLQDYGISVAKVNCVKEEISRYCGKEKDLMKAYLFKGNILLREFPTDTLFDVNAIVAHVLFALLFSEVKYITNLEDLQNIENALKGKANIIFSYVRAIGIPEHRAVMEAAFVYGTTYQFVLTTEIALLESIGSEDVEYAHLYFFHCKLVLDLTQQCRRTLMEQPLTTLNIHLFIKTMKAPLLTEVAEDPQQVSTVHLQLGLPLVFIVSQQATYEADRRTAEWVAWRLLGKAGVLLLLRDSLEVNIPQDANVVFKRAEEGVPVEFLVLHDVDLIISHVENNMHIEEIQEDEDNDMEGPDIDVQDDEVAETVFRDRKRKLPLELTVELTEETFNATVMASDSIVLFYAGWQAVSMAFLQSYIDVAVKLKGTSTMLLTRINCADWSDVCTKQNVTEFPIIKMYKKGENPVSYAGMLGTEDLLKFIQLNRISYPVNITSIQEAEEYLSGELYKDLILYSSVSVLGLFSPTMKTAKEDFSEAGNYLKGYVITGIYSEEDVLLLSTKYAASLPALLLARHTEGKIESIPLASTHAQDIVQIITDALLEMFPEITVENLPSYFRLQKPLLILFSDGTVNPQYKKAILTLVKQKYLDSFTPCWLNLKNTPVGRGILRAYFDPLPPLPLLVLVNLHSGGQVFAFPSDQAIIEENLVLWLKKLEAGLENHITILPAQEWKPPLPAYDFLSMIDAATSQRGTRKVPKCMKETDVQENDKEQHEDKSAVRKEPIETLRIKHWNRSNWFKEAEKSFRRDKELGCSKVN
With B2, in the assay with ERFAD-His-FLAG, the binding entry is recorded as “binds”.

B3: ERFAD (endogenous) (protein, UniProt Q8IWF2 27-684)
chain: VPPRRDYCVLGAGPAGLQMAYFLQRAGRDYAVFERAPRPGSFFTRYPRHRKLISINKRYTGKANAEFNLRHDWNSLLSHDPRLLFRHYSRAYFPDARDMVRYLGDFADTLGLRVQYNTTIAHVTLDKDRQAWNGHYFILTDQKGQVHQCSVLFVATGLSVPNQVDFPGSEYAEGYESVSVDPEDFVGQNVLILGRGNSAFETAENILGVTNFIHMLSRSRVRLSWATHYVGDLRAINNGLLDTYQLKSLDGLLESDLTDLAILKDSKGKFHVTPKFFLEEANTNQSADSITLPQDDNDNFAMRVPYDRVIRCLGWNFDFSIFNKSLRLNSGNAFGKKYPLIRASYESKGSRGLFILGTASHSVDYRKSAGGFIHGFRYTVRAVHRLLEHRHHSVTWPATELPITQLTSSIVRRVNEASGLYQMFGVLADVILLKENSTAFEYLEEFPIQMLAQLETLTGRKAKHGLFVINMEYGRNFSGPDKDVFFDDRSVGHTEDAWQSNFLHPVIYYYRYLPTEQEVRFRPAHWPLPRPTAIHHIVEDFLTDWTAPIGHILPLRRFLENCLDTDLRSFYAESCFLFALTRQKLPPFCQQGYLRMQGLVSTESLWQHRVESRLLRDYAPTGRRLEDSSQQLGDQEPLGSPLAPGPLAQSVDSNKEEL
Consider B3, for which the binding result in the assay with myc-ERp90 (human) is “binds”.
